Results deposited as PubChem BioAssay AID686938 (Drosophila RNAi Screening Center, 2013).

Purpose: 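Knock-downs reducing store-operated calcium influx in Drosophila cells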 (primary screen)
System: Drosophila S2R+ cells
Reagent: long dsRNA against Drosophila genes, about 0.25 µg dsRNA per well, roughly 10,000 cells
Duration: 5 days of knock-down before the calcium assay
Challenge: thapsigargin (SERCA pump blocker) to empty calcium stores; entry signal taken 4 min after adding it
Measured: 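Per-well fluo-4 fluorescence in two replicates, unnormalised, measured in resting cells and 4 min after store depletion by the SERCA blocker thapsigargin; ratio of the two present in few wells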
Scale: calcium entry signal: higher = stronger calcium signal after store depletion; resting calcium signal: higher = higher resting calcium signal
Rule for the call: 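Hit if the duplicate-averaged plate z-score for entry over resting signal is under −3; wells with weak total dye signal (Fmax z < −2) or more than 5 off-targets removed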
Meaning of the calls: active = strongly reduced calcium entry; inactive = no strong reduction
The deposit covers about 23,000 reagents; below is a random part of those that have a named target and a result. Over the whole deposit, 75 (0.33%) are marked active. 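Raw plate signals without normalisation; calls rest on plate z-scores that were not deposited; ratio present for only 364 wells.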 Reagents against one gene are numbered here. Names joined by + are all predicted targets of the reagent. Not stated in the record: the dose of the treatment.

no.	target	reagent	calcium entry signal, replicate 1 (fluorescence units)	calcium entry signal, replicate 2 (fluorescence units)	resting calcium signal, replicate 1 (fluorescence units)	resting calcium signal, replicate 2 (fluorescence units)	activity call
1	Dnai2	1	2.56e7	3.48e7	1.31e7	1.55e7	inactive
2	OtopLc	1	3.54e7	4.76e7	1.83e7	2.20e7	inactive
3	OtopLc	2	2.89e7	4.44e7	1.52e7	2.05e7	inactive
4	OtopLc	3	3.52e7	4.74e7	1.69e7	2.20e7	inactive
5	CG42354 + CG42353	1	4.11e7	4.06e7	1.98e7	1.96e7	inactive
6	CG33110	1	2.97e7	4.11e7	1.66e7	1.87e7	inactive
7	CG33110	2	3.75e7	6.28e7	1.81e7	2.13e7	inactive
8	aPKC	1	3.04e7	4.61e7	1.42e7	1.90e7	inactive
9	aPKC	2	3.48e7	4.03e7	1.79e7	1.79e7	inactive
10	DAT	1	4.86e7	5.57e7	2.17e7	2.71e7	inactive
11	Ir75b	1	3.96e7	4.96e7	1.92e7	2.20e7	inactive
12	Ppr-Y	1	3.31e7	3.94e7	1.53e7	1.77e7	inactive
13	CG5731	1	5.28e7	4.36e7	2.05e7	1.93e7	inactive
14	l(3)72Dr	1	4.19e7	7.31e7	2.16e7	2.68e7	inactive
15	CG10348	1	5.05e7	3.72e7	2.68e7	1.68e7	inactive
16	CG10348	2	3.88e7	8.11e7	2.10e7	4.05e7	inactive
17	CG10348	3	4.41e7	2.87e7	2.50e7	1.33e7	inactive
18	CG1789	1	1.74e7	2.00e7	1.06e7	1.06e7	inactive
19	CG8765	1	2.77e7	4.48e7	1.61e7	2.37e7	inactive
20	CG8765	2	4.68e7	3.03e7	2.31e7	1.52e7	inactive
21	azot	1	3.04e7	2.11e7	1.51e7	1.15e7	inactive
22	CG34309	1	3.08e7	4.46e7	1.50e7	6.65e7	inactive
23	Rab6	1	4.80e7		2.25e7		inactive
24	l(1)G0196	1	3.18e7	3.98e7	1.54e7	1.70e7	inactive
25	l(1)G0196	2	5.24e7	4.82e7	2.24e7	1.92e7	inactive
26	gus	1	3.17e7		1.57e7		inactive
27	gus	2	3.39e7	4.84e7	1.80e7	2.23e7	inactive
28	CG4328	1	3.24e7	4.69e7	1.92e7	2.57e7	inactive
29	CG4328	2	3.67e7	4.02e7	1.79e7	1.94e7	inactive
30	Chpf	1	3.35e7	3.98e7	1.66e7	1.81e7	inactive
31	Chpf	2	3.60e7	3.77e7	1.70e7	1.79e7	inactive
32	CheA75a	1	3.93e7	5.89e7	1.83e7	3.87e7	inactive

Reprinted from the listing for reference:
no.	target	reagent	calcium entry signal, replicate 1 (fluorescence units)	calcium entry signal, replicate 2 (fluorescence units)	resting calcium signal, replicate 1 (fluorescence units)	resting calcium signal, replicate 2 (fluorescence units)	activity call
3	OtopLc	2	2.89e7	4.44e7	1.52e7	2.05e7	inactive
4	OtopLc	3	3.52e7	4.74e7	1.69e7	2.20e7	inactive
5	CG42354 + CG42353	1	4.11e7	4.06e7	1.98e7	1.96e7	inactive
6	CG33110	1	2.97e7	4.11e7	1.66e7	1.87e7	inactive
7	CG33110	2	3.75e7	6.28e7	1.81e7	2.13e7	inactive
8	aPKC	1	3.04e7	4.61e7	1.42e7	1.90e7	inactive
9	aPKC	2	3.48e7	4.03e7	1.79e7	1.79e7	inactive
10	DAT	1	4.86e7	5.57e7	2.17e7	2.71e7	inactive
11	Ir75b	1	3.96e7	4.96e7	1.92e7	2.20e7	inactive

The results go on:
no.	target	reagent	calcium entry signal, replicate 1 (fluorescence units)	calcium entry signal, replicate 2 (fluorescence units)	resting calcium signal, replicate 1 (fluorescence units)	resting calcium signal, replicate 2 (fluorescence units)	activity call
33	Irk1	1	4.07e7	6.31e7	2.05e7	2.52e7	inactive
34	Irk1	2	4.07e7	6.40e7	2.33e7	2.87e7	inactive
35	l(2)03659	1	4.09e7	4.39e7	1.90e7	1.88e7	inactive
36	l(2)03659	2	3.95e7	5.09e7	1.77e7	2.08e7	inactive
37	CG4477	1	1.69e7	2.70e7	8.98e6	1.21e7	inactive
38	CG5050	1	4.27e7	2.94e7	1.92e7	1.30e7	inactive
39	CG10211	1	5.46e7	4.02e7	2.26e7	1.72e7	inactive
40	Ero1L	1	4.70e7	3.93e7	3.29e7	1.77e7	inactive
41	l(1)G0469	1	2.12e7	2.55e7	1.01e7	1.15e7	inactive
42	l(1)G0469	2	2.70e7	3.76e7	1.43e7	1.77e7	inactive
43	Gga	1	3.40e7	3.72e7	1.56e7	1.70e7	inactive
44	CG6304	1	3.22e7		1.83e7		inactive
45	CG9953	1	3.64e7	4.33e7	1.68e7	1.62e7	inactive
46	Mpi	1	3.19e7	3.06e7	1.56e7	1.56e7	inactive
47	CG31861	1	3.02e7	4.14e7	1.75e7	1.96e7	inactive
48	CG13218	1	1.69e7	3.47e7	9.34e6	1.46e7	inactive
49	CG42562	1	4.67e7	6.32e7	2.21e7	3.01e7	inactive
50	CG9663	1	4.61e7		2.62e7		inactive
51	CG18477 + CG31780	1	4.92e7	3.55e7	2.18e7	1.74e7	inactive
52	Tctp	1	3.15e7	2.85e7	1.62e7	1.47e7	inactive
53	Dif	1	4.38e7	3.31e7	2.07e7	1.47e7	inactive
54	Vps16B	1	4.22e7	5.66e7	2.14e7	2.46e7	inactive
55	Ir47a	1	4.75e7	2.67e7	2.10e7	1.48e7	inactive
56	HP1b	1	1.46e7	3.95e7	8.79e6	1.93e7	inactive
57	Cpr65Ec	1	3.37e7	3.89e7	1.61e7	1.63e7	inactive
58	Nepl5	1	4.81e7		2.51e7		inactive
